According to patent publication US20250152627A1, “COMPOSITIONS AND METHODS FOR ENHANCING IMMUNE CELL FUNCTION USING MODIFIED CELLS WITH GLYCOCALYX EDITING ENZYMES” (Cornell University, priority 2021, published 2025):
Results are given in words; binding and its absence hold for the method and conditions named. Some entries that bind do so weakly or less than the wild type.

Chains of the proteins cited; added tags and fusions are not shown. Lines headed by an entry give the natural chain unless they say otherwise; changes in a name come on top. Residues count along the entry.
UniProt P15941, residues 24-1189: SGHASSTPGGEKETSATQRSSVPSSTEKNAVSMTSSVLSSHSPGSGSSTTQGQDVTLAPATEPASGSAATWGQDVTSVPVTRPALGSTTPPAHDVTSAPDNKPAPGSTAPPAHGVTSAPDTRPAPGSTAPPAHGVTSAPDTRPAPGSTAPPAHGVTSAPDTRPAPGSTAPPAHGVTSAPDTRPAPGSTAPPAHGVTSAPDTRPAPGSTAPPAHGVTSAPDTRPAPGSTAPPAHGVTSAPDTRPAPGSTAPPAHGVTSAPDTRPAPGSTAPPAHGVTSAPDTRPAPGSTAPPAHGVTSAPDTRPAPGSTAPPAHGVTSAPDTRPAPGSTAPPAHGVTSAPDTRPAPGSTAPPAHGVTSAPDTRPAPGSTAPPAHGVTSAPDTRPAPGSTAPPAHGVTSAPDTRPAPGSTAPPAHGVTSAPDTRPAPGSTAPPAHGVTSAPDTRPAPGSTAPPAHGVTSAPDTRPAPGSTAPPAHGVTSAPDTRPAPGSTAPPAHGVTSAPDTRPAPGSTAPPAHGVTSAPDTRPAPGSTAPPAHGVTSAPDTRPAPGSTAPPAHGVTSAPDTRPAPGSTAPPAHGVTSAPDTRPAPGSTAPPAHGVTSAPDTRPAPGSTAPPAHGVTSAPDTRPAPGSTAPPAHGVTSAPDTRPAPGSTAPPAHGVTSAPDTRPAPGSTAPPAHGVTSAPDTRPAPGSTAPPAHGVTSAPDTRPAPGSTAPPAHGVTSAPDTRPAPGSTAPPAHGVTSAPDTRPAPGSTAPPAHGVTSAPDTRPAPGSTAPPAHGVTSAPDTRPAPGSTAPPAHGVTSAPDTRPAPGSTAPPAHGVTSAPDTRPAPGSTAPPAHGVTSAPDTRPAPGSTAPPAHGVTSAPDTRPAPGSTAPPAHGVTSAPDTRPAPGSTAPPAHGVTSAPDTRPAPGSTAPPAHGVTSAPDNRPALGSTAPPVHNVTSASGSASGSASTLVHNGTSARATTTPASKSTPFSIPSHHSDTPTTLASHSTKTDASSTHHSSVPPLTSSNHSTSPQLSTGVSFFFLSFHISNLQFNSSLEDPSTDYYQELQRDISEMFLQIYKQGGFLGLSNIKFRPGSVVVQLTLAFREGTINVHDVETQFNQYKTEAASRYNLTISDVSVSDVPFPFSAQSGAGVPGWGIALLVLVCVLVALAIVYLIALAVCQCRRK
UniProt P09382, residues 2-135: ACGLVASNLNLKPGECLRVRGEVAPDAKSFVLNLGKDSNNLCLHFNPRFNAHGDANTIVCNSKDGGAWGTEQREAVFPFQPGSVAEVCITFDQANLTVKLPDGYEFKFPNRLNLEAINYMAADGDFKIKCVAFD

Target: Muc1-GFP with 42 tandem repeats (Muc1 mOxGFP ΔCT, about 42 native tandem repeats) on 1E7 cells (UniProt P15941)
Test: fluorescence quantification of recombinant galectin on 1E7 cells and glycoengineered progeny (glycan-mediated)

For “recombinant human galectin-1 (from UniProt P09382 2-135) (ligand)”, the binding was “binds”.
